Substitutions are numbered along the chain they refer to. Names may count otherwise. No constants are given. Whether binding was seen depends on the method and setting. Some binding calls cover weakened binding; strength is not graded here.
T1: Methanosarcina mazei glutamine synthetase (Methanosarcina mazei), Q8PY99
T1 chain: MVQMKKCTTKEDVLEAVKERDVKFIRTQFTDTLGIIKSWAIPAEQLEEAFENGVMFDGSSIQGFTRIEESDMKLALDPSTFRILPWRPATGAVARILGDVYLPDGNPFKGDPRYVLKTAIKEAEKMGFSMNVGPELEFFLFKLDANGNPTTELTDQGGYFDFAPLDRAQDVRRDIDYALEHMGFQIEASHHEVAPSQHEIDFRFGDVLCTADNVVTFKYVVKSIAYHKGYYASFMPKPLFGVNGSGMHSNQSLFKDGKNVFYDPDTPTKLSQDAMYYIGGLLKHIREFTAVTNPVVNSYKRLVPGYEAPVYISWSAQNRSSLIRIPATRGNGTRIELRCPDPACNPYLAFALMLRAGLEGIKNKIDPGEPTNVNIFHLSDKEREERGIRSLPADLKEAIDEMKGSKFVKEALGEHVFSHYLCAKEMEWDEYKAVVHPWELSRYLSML

T2: Methanosarcina mazei glutamine synthetase (Methanosarcina mazei) (UniProt Q8PY99)
T2 sequence: T1 chain

B1: Methanosarcina mazei GlnK1 (natural protein)
chain: MVAMKYVIAMIRPERLDAVKRELQKIEVSRLTVSSVSGYGAQKGYMEIYRAMEYDANLLEKIKIEIAVNDEFLEPTIEAIKTGAKGSDGYVGSGKIFVLPLENVIRIRTNETGPEAI
notes: GlnK1, PII family nitrogen regulatory protein of Methanosarcina mazei; gene bought from Genscript, in pET15b; Trimer in the crystal structure of the complex with GS; also called Mm GlnK1; WT GlnK1; source: E. coli C41(DE3), purified (cobalt NTA TALON)
B2: Mm GlnK1(I48P-Y49P) (protein, UniProt Q8PYW7 1-117)
chain: B1 chain with I48P, Y49P

Key:
[1] = target: T1, Methanosarcina mazei glutamine …; assay: crystal structure; Mm GS-GlnK1 complex formed by mixing ~2:1 (excess GlnK1) and SEC; 30% PEG 400, 0.1 M sodium cacodylate pH 6.5, 0.1 M LiSO4; both purified; settings: remark: other sources report otherwise
[2] = target: T2, Methanosarcina mazei glutamine synthetase (Methanosarcina mazei); assay: fluorescence polarisation; apparent; GS titrated to saturation into 1 nM Fluorescein-12-ATP, then GlnK1 titrated in; 25 mM Tris pH 7.5, 100 mM NaCl, 1 mM MgCl2; both purified

Binder | binding [1] | binding [2]
B1 | binds | –
B2 | – | no binding

From publication PMC10651883, “M. mazei glutamine synthetase and glutamine synthetase-GlnK1 structures reveal enzyme regulation by oligomer modulation” (Nature Communications, 2023)
